Test results from PubChem BioAssay AID2685 (National Center for Advancing Translational Sciences (NCATS), 2010).
This is one part of the list. The main result of the screen is listed elsewhere. These columns were measured beside it and carry no call. Compounds called inactive in the main read-out are mostly missing here. Potencies come from curve fits of mixed quality, noted in brackets.

Assay: qHTS Assay for Lipid Storage Modulators in Drosophila S3 Cells;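 as to cell number change: cells counted by Cell Tracker Red CMTPX staining in the red channel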
Conditions: BODIPY lipid droplet fluorescence, 18-24 h; for cell number change: measured here: cell count max response, cells fed with added oleic acid
How it was run: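 Laser-scanning cytometry quantifies lipid droplet accumulation (500–530 nm total intensity; droplet/cell object ratio) in oleic acid-fed (400 uM added) Drosophila S3 cells treated with a concentration series. 20 uM Triacsin C defined 100% inhibition.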

[1] = measured here: cell number channel AC50, cells fed with added oleic acid
[2] = measured here: lipid fluorescence (Fed channel) AC50, cells fed with added oleic acid

Structure (SMILES) | cell number change | AC50 [1] | AC50 [2]
Cc1cccc(C)c1OCc1nnc(SCC(=O)NCc2ccccc2)o1 | 15.7% |  | 
COc1ccc(NC(=O)C(C)N=C2NS(=O)(=O)c3ccccc32)cc1S(N)(=O)=O (stereo not given) | -58.5% | 20.6 µM [falling, partial curve, poor fit] | 16.4 µM [falling, partial curve, poor fit]
O=C(O)C1CC=CCC1C(=O)Nc1ccc(S(=O)(=O)N2CCCc3ccccc32)cc1 (stereo not given) |  |  | 25.9 µM [falling, partial curve, poor fit]
COC(=O)Cc1c(O)ccn(C2CC2)c1=O |  |  | 25.9 µM [rising, single point]
Cc1cccc(NC(=S)NCc2cccs2)c1C | 0.919% |  | 
COC(=O)c1ccc(NC(=O)NCCCl)cc1 | 7.81% |  | 
Fc1cccc(Cn2ccc(-c3ccc4c(c3)OCO4)n2)c1 | 51.4% | 6.51 µM [rising, single point] | 7.31 µM [rising, partial curve]
CC1CCc2c(sc(NC(=O)C3=COCCO3)c2C(N)=O)C1 (stereo not given) | -12.6% |  | 0.13 µM [rising, full curve, poor fit]
COc1ccccc1CNC(=O)C1CCC(CNc2c(N3CCOCC3)c(=O)c2=O)CC1 (stereo not given) | -38.8% |  | 32.6 µM [falling, single point]
Cn1nc([N+](=O)[O-])nc1Oc1ccccc1 | -2.36% |  | 6.51 µM [falling, single point]
COc1ccc(C(=O)Nc2nc(N)n(-c3ccccc3)n2)cc1OC | 24.6% | 2.59 µM [rising, full curve, poor fit] | 
CCCCn1c(N)c(N(CC(C)C)C(=O)c2ccc(S(=O)(=O)N3CCCCCC3)cc2)c(=O)[nH]c1=O | 12.9% |  | 
COc1cc(NS(=O)(=O)c2ccc(N/C=C(\C#N)c3nc4ccccc4o3)cc2)nc(OC)n1 | -0.2% |  | 
O=C(CSc1nnnn1C1CCCCC1)N1CCOCC1 | 13.9% |  | 
COC(=O)[C@@]12OC[C@]34[C@H]([C@@H](O)[C@@H]1O)[C@@]1(C)C(=O)C(O[C@@H]5OC(CO)[C@@H](O)[C@@H](O)[C@@H]5O)=C[C@@H](C)[C@@H]1C[C@H]3OC(=O)[C@H](OC(=O)/C=C(\C)C(C)(C)OC(C)=O)[C@@H]24 (stereo not given in full) | -12.2% |  | 3.66 µM [falling, full curve, poor fit]
Cc1nnc(NCCc2ccccc2)[nH]c1=O | 6.77% |  | 
O=C(Cn1cnc2c(nnn2Cc2ccccc2)c1=O)c1ccccc1 | 14.1% |  | 0.184 µM [rising, full curve, poor fit]
CCCCCc1cc(=O)oc2c(C(CCN(CC)CC)c3ccc(N(C)C)cc3)c(OC)cc(OC)c12 (stereo not given) | -35.1% | 6.51 µM [falling, partial curve, poor fit] | 16.4 µM [falling, partial curve]

Copied from the listing for reference:
Structure (SMILES) | cell number change | AC50 [1] | AC50 [2]
Cc1cccc(C)c1OCc1nnc(SCC(=O)NCc2ccccc2)o1 | 15.7% |  | 
COc1ccc(NC(=O)C(C)N=C2NS(=O)(=O)c3ccccc32)cc1S(N)(=O)=O (stereo not given) | -58.5% | 20.6 µM [falling, partial curve, poor fit] | 16.4 µM [falling, partial curve, poor fit]
